In the supplement of paper PMC10849652:
The list shows a part of the results.

Sequences of proteins named here, by UniProt entry; tags and fusion partners are left off. A change or cut given only in a name is not applied to a line headed by its entry.
UniProt Q8N543: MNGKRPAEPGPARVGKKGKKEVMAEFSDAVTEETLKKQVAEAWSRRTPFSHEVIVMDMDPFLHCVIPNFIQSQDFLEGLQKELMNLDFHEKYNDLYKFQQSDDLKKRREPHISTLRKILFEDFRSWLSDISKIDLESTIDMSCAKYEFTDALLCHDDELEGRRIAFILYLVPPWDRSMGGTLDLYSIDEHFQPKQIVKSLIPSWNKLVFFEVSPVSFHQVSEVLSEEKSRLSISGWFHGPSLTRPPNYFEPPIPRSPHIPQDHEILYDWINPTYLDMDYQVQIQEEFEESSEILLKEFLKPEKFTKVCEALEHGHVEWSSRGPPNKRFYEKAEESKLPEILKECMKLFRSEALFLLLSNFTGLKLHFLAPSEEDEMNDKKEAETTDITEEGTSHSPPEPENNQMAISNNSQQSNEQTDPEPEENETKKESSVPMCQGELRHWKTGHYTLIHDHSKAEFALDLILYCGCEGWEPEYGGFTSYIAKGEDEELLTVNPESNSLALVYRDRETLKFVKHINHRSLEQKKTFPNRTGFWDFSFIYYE
UniProt O15504: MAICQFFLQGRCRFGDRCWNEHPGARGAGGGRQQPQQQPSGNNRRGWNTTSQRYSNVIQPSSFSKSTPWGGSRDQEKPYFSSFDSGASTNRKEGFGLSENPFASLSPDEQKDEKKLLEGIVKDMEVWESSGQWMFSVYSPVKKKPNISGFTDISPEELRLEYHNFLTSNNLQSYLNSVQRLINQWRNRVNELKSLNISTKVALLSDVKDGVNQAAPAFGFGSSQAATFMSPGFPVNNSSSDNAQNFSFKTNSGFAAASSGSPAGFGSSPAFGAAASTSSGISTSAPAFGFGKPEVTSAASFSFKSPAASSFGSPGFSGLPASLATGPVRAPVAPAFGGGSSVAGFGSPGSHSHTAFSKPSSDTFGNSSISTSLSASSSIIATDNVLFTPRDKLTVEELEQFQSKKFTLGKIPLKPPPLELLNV
UniProt Q92621: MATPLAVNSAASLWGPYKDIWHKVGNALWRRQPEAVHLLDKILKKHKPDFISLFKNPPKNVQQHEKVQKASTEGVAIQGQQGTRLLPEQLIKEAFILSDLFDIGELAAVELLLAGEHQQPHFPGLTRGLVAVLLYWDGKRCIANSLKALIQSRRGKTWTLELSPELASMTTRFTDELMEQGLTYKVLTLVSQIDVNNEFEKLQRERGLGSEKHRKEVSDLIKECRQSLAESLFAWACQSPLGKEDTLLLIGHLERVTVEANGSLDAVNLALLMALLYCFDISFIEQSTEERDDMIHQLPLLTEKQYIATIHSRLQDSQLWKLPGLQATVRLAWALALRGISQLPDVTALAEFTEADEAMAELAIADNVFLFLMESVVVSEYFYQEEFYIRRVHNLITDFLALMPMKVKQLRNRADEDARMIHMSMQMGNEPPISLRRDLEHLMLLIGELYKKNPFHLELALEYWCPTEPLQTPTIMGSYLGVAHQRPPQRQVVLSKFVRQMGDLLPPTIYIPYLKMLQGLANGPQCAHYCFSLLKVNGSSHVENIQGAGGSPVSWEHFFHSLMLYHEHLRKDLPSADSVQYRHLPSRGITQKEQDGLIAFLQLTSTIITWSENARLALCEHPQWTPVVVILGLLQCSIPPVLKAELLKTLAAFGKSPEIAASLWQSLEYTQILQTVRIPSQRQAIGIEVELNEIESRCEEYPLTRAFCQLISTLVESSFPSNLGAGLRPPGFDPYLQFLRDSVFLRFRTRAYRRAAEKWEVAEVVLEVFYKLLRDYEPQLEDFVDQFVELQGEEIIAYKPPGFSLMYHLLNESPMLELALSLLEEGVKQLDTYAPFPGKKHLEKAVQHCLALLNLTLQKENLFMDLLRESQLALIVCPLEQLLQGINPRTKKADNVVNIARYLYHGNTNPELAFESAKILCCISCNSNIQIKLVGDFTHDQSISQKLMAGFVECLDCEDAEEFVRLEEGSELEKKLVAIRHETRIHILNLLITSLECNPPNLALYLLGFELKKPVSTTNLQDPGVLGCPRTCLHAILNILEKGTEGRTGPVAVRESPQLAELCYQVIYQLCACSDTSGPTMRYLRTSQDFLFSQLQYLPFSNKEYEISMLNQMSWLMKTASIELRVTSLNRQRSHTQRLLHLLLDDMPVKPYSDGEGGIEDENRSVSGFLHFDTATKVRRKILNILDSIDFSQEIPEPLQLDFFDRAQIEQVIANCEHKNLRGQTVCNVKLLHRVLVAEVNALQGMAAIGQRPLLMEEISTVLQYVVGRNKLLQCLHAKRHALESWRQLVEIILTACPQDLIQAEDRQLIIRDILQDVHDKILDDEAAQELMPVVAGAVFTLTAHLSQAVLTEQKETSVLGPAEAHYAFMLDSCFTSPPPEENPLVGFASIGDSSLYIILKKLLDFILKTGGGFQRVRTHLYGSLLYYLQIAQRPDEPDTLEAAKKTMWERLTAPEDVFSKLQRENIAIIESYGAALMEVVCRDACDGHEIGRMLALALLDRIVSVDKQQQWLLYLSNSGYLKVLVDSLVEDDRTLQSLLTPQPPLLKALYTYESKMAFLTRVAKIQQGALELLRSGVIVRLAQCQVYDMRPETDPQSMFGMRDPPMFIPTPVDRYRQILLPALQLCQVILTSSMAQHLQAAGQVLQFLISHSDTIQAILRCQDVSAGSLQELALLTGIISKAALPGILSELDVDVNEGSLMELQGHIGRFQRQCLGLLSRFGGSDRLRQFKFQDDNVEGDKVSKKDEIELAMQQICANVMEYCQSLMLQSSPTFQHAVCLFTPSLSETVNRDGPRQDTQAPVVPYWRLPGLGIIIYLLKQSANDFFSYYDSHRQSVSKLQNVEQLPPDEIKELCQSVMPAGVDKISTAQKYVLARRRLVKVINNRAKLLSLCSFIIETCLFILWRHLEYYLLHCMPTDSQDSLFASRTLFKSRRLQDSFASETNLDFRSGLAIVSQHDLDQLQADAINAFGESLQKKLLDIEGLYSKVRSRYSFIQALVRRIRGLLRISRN
UniProt Q96SU4: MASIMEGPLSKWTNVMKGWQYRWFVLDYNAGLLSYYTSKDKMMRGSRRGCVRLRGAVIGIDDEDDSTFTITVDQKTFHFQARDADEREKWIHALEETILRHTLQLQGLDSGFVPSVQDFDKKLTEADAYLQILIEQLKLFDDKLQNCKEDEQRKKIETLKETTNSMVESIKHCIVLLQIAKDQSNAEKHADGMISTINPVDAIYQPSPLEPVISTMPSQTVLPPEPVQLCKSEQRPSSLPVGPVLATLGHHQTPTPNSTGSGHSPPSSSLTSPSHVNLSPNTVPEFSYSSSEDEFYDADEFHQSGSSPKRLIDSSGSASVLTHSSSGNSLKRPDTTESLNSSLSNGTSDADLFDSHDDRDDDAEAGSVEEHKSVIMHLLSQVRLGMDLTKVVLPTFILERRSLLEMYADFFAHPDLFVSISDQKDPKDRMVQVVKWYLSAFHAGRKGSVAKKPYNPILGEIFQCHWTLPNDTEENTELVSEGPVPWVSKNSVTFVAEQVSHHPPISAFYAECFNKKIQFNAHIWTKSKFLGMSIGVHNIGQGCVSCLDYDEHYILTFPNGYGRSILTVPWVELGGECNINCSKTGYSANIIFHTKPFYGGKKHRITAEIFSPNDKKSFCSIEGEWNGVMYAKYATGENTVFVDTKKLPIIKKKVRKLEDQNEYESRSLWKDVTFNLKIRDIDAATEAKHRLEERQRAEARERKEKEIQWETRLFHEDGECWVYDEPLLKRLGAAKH
UniProt Q9BZF3: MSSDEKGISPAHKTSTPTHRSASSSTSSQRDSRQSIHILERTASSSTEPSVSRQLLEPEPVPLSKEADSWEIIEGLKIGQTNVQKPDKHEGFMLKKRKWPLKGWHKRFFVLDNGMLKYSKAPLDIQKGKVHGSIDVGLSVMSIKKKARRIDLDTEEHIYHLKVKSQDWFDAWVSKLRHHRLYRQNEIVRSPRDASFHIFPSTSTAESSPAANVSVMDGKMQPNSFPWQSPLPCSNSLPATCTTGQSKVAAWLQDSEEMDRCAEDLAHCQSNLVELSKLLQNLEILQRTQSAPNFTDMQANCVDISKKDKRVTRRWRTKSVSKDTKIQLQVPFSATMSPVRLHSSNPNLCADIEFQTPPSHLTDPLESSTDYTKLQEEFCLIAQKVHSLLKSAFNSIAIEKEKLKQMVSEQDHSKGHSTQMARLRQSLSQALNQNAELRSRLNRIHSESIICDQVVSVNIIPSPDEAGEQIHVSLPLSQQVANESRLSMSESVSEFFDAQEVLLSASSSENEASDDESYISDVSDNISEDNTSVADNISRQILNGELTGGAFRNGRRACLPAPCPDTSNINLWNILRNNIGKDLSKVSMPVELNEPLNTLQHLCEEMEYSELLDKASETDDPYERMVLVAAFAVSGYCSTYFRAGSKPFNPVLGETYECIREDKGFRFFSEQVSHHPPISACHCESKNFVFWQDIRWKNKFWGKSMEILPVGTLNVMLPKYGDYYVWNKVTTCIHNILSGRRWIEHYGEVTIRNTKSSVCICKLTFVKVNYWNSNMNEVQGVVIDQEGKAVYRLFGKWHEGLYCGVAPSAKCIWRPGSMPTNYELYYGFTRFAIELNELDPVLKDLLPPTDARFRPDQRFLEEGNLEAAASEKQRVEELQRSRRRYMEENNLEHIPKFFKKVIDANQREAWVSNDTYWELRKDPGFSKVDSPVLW
UniProt Q13416: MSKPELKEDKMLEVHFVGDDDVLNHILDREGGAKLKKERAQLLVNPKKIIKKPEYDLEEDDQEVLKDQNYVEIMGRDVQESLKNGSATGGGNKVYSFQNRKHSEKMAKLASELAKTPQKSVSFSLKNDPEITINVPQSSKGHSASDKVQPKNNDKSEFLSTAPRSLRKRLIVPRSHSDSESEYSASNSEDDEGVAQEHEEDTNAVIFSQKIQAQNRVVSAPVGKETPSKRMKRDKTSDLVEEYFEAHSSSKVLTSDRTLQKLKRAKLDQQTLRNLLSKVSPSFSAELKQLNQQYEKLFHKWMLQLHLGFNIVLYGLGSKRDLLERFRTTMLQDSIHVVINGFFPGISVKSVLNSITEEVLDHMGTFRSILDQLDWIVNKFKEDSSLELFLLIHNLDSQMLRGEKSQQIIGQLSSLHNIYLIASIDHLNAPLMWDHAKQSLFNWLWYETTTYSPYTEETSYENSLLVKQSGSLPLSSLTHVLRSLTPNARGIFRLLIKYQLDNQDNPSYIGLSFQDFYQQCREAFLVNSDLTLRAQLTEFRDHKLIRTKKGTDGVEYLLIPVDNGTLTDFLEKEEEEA
UniProt Q5W0B1: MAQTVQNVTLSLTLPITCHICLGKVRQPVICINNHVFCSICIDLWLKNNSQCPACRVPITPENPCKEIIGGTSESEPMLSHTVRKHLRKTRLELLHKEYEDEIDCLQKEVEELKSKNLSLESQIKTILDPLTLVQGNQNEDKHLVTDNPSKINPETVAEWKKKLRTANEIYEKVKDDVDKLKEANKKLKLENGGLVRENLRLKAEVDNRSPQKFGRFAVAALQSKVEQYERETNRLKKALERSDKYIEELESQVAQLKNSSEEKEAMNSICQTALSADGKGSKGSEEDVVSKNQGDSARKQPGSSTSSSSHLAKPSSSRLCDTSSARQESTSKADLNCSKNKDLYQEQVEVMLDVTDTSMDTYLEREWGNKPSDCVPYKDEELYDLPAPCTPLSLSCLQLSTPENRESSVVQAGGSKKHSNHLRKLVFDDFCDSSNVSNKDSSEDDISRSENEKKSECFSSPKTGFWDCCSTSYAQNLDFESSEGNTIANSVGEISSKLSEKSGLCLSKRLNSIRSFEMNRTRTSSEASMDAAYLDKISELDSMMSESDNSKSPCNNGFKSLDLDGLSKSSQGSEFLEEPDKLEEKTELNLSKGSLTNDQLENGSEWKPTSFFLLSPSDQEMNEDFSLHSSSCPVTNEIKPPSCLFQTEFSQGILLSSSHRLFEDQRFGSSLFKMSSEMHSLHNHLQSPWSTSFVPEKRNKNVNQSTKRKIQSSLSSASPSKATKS
UniProt Q8TE04: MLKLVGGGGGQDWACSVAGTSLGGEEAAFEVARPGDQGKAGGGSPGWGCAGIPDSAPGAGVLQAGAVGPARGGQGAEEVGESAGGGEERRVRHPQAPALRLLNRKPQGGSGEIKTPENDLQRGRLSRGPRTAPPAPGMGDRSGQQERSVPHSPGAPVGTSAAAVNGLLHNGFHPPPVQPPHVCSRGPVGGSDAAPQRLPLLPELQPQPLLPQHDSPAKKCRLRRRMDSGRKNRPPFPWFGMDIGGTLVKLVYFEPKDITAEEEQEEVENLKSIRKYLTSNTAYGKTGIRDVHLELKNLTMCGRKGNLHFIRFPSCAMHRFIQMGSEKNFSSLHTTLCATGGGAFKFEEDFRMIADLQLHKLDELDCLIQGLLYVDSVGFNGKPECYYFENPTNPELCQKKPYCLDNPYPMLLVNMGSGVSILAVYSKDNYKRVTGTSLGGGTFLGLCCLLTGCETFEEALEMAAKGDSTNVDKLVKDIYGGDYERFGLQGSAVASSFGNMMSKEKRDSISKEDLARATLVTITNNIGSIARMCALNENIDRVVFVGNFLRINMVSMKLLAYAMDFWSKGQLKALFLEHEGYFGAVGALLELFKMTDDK

Key:
Assay in all cases: log2 fold change, soluble protein after heating vs DMSO (PISA); higher = thermal stabilisation; K562 lysate, 10 uM; active = over 0.2 and 3.5 SD of the protein, either way, in both replicates (recomputed)
erlotinib = compound: C#Cc1cccc(Nc2ncnc3cc(OCCOC)c(OCCOC)cc23)c1 [erlotinib]
How it was run: (§1)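 A 30 min treatment with 10 μM compound was applied to crude K562 extract at 1 mg/mL protein in PBS pH 7.4 with 1 mM MgCl2. Heating for 3 min spanned 48°C-58°C, after which aliquots were pooled, adjusted to 0.5% NP-40 at 4°C and spun at 21,000xg for 90 min. TMTpro 16plex LC-MS/MS of the supernatant, with channel sums equalised, gave values recorded as log-two fold change in thermal stability against solvent controls, from duplicates.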

[1] = compound: C/C(=N\NC(=O)C1=CC(=CC=C1)S(=O)(=O)N2CCOCC2)/C3=C(C=CC(=C3)Cl)O
How it was run: as §1

[2] = compound: C1=CC(=CC=C1C2=NC3=C(N2)C=C(C=C3)C(=O)N)OC4=CC=C(C=C4)Cl
How it was run: as §1

[3] = compound: C1=CC2=C(C=CC(=C2)/C=C\3/C(=O)NC(=NCC4=CC=CS4)S3)N=C1
How it was run: as §1

[4] = compound: C1=CC2=NC=CN=C2C=C1/C=C/3\C(=O)NC(=O)S3
How it was run: as §1

[5] = compound: C1=CC=C(C=C1)C2=NC(=C(N2)C3=CC=NC=C3)C4=CC(=C(C=C4)Cl)O
How it was run: as §1

[6] = compound: C1=CC=C2C(=C1)C3=NNC4=CC=CC(=C43)C2=O
How it was run: as §1

[7] = compound: C1CCN(C1)C(=O)NC2=CC=CC(=C2)NC3=NC=C(C(=N3)NCCC4=CN=CN4)Br
How it was run: as §1

[8] = compound: C1CN(CCC1(CC2=CC=C(C=C2)Cl)N)C3=NC=NC4=C3C=CN4
How it was run: as §1

IRAK-1-4 Inhibitor I = compound: C1COCCN1CCN2C3=CC=CC=C3N=C2NC(=O)C4=CC(=CC=C4)[N+](=O)[O-] [IRAK-1-4 Inhibitor I]
How it was run: as §1

Measured: log2 fold change

OGFOD1 (UniProt Q8N543)
inactive: erlotinib 0.008 | [1] 0 | [2] -0.012 | [3] -0.005 | [4] -0.027 | [5] 0.011 | [6] 0.028 | [7] -0.014 | [8] -0.032 | IRAK-1-4 Inhibitor I 0.02

NUP160 (UniProt Q12769)
inactive: erlotinib 0.038 | [1] 0.041 | [2] -0.033 | [3] -0.006 | [4] 0.038 | [5] -0.012 | [6] -0.075 | [7] -0.029 | [8] 0.015 | IRAK-1-4 Inhibitor I -0.013

OCRL (UniProt Q01968)
inactive: erlotinib -0.057 | [1] -0.031 | [2] 0.04 | [3] 0.085 | [4] -0.012 | [5] 0.054 | [6] -0.1 | [7] 0.02 | [8] 0.055 | IRAK-1-4 Inhibitor I 0.068

NUP42 (UniProt O15504)
inactive: erlotinib 0.036 | [1] -0.049 | [2] 0.039 | [3] -0.089 | [4] -0.096 | [5] 0.001 | [6] 0.062 | [7] 0.091 | [8] 0.151 | IRAK-1-4 Inhibitor I 0.034

OTULIN (UniProt Q96BN8)
inactive: erlotinib -0.021 | [1] -0.076 | [2] -0.003 | [3] 0.016 | [4] -0.002 | [5] -0.027 | [6] -0.031 | [7] 0.012 | [8] -0.027 | IRAK-1-4 Inhibitor I 0.005

NUP205 (UniProt Q92621)
inactive: erlotinib 0.03 | [1] -0.022 | [2] -0.018 | [3] 0.049 | [4] -0.008 | [5] -0.013 | [6] -0.06 | [7] -0.009 | [8] 0.035 | IRAK-1-4 Inhibitor I 0.005

OTUD7B (UniProt Q6GQQ9)
inactive: erlotinib 0.028 | [1] -0.06 | [2] 0.075 | [3] -0.026 | [4] -0.017 | [5] -0.006 | [6] -0.076 | [7] -0.002 | [8] 0.032 | IRAK-1-4 Inhibitor I -0.039

ORC4 (UniProt O43929)
inactive: erlotinib 0.02 | [1] 0.059 | [2] -0.037 | [3] -0.042 | [4] -0.019 | [5] -0.035 | [6] 0.031 | [7] 0.052 | [8] 0.026 | IRAK-1-4 Inhibitor I -0.011

OSBPL9 isoform 2 (UniProt Q96SU4)
inactive: erlotinib 0.005 | [1] -0.029 | [2] 0.009 | [3] -0.033 | [4] 0.013 | [5] -0.056 | [6] -0.072 | [7] 0.015 | [8] 0.038 | IRAK-1-4 Inhibitor I 0.01

PAN2 isoform 2 (UniProt Q504Q3)
inactive: erlotinib 0 | [1] -0.007 | [2] -0.015 | [3] -0.005 | [4] 0.052 | [5] 0.03 | [6] 0 | [7] -0.017 | [8] -0.031 | IRAK-1-4 Inhibitor I 0.006

NUP214 (UniProt P35658)
inactive: erlotinib -0.013 | [1] -0.031 | [2] 0.019 | [3] -0.001 | [4] 0.008 | [5] -0.075 | [6] -0.029 | [7] -0.017 | [8] -0.015 | IRAK-1-4 Inhibitor I 0.035

OGT (UniProt O15294)
inactive: erlotinib 0.021 | [1] 0.053 | [2] 0.01 | [3] -0.008 | [4] 0.008 | [5] 0.024 | [6] -0.021 | [7] -0.006 | [8] 0.02 | IRAK-1-4 Inhibitor I -0.017

OSTC isoform 2 (UniProt Q9NRP0)
inactive: erlotinib 0.037 | [1] 0.03 | [2] -0.073 | [3] -0.027 | [4] 0.083 | [5] -0.066 | [6] -0.081 | [7] -0.045 | [8] 0.035 | IRAK-1-4 Inhibitor I 0.008

OXA1L (UniProt Q15070)
inactive: erlotinib -0.024 | [1] -0.001 | [2] -0.161 | [3] 0.008 | [4] 0.017 | [5] 0.009 | [6] -0.014 | [7] 0.008 | [8] -0.009 | IRAK-1-4 Inhibitor I -0.033

OSBPL6 isoform 5 (UniProt Q9BZF3)
active: [1] 0.398
inactive: erlotinib 0.182 | [2] 0.09 | [3] -0.006 | [4] -0.012 | [5] 0.257 | [6] 0.107 | [7] -0.029 | [8] -0.015 | IRAK-1-4 Inhibitor I -0.08

OSBPL3 isoform 2 (UniProt Q9H4L5)
inactive: erlotinib 0.292 | [1] 0.206 | [2] 0.038 | [3] 0.079 | [4] -0.04 | [5] 0.189 | [6] 0.135 | [7] -0.001 | [8] -0.018 | IRAK-1-4 Inhibitor I -0.183

ORC2 (UniProt Q13416)
inactive: erlotinib -0.004 | [1] -0.006 | [2] -0.006 | [3] 0.009 | [4] 0.015 | [5] 0.006 | [6] -0.022 | [7] 0 | [8] -0.024 | IRAK-1-4 Inhibitor I -0.034

PAIP1 (UniProt Q9H074)
inactive: erlotinib -0.031 | [1] -0.069 | [2] 0.032 | [3] 0.041 | [4] 0 | [5] 0.012 | [6] 0.039 | [7] -0.011 | [8] -0.003 | IRAK-1-4 Inhibitor I -0.025

OBI1 (UniProt Q5W0B1)
inactive: erlotinib 0.013 | [1] -0.124 | [2] -0.011 | [3] -0.052 | [4] -0.018 | [5] 0.059 | [6] 0.03 | [7] 0.029 | [8] 0.057 | IRAK-1-4 Inhibitor I -0.03

P4HA1 (UniProt P13674)
inactive: erlotinib -0.003 | [1] -0.024 | [2] -0.009 | [3] 0.008 | [4] -0.009 | [5] 0.008 | [6] -0.005 | [7] 0.023 | [8] 0.008 | IRAK-1-4 Inhibitor I -0.003

OXNAD1 (UniProt Q96HP4)
inactive: erlotinib -0.056 | [1] 0.055 | [2] -0.036 | [3] 0.037 | [4] -0.02 | [5] -0.015 | [6] -0.026 | [7] 0.043 | [8] -0.055 | IRAK-1-4 Inhibitor I -0.069

P3H1 (UniProt Q32P28)
inactive: erlotinib -0.02 | [1] 0.027 | [2] 0.015 | [3] -0.002 | [4] 0.002 | [5] -0.005 | [6] 0.01 | [7] 0.024 | [8] -0.009 | IRAK-1-4 Inhibitor I 0.013

OSBP (UniProt P22059)
inactive: erlotinib -0.023 | [1] -0.056 | [2] 0.037 | [3] -0.006 | [4] 0.017 | [5] -0.031 | [6] -0.031 | [7] -0.016 | [8] 0.016 | IRAK-1-4 Inhibitor I -0.112

OTUB1 (UniProt Q96FW1)
inactive: erlotinib -0.003 | [1] 0.037 | [2] 0.008 | [3] 0.005 | [4] 0.011 | [5] -0.002 | [6] 0.043 | [7] 0.028 | [8] 0.028 | IRAK-1-4 Inhibitor I 0.029

Reprinted at random: two entries already listed
OXNAD1 (UniProt Q96HP4)
inactive: erlotinib -0.056 | [1] 0.055 | [2] -0.036 | [3] 0.037 | [4] -0.02 | [5] -0.015 | [6] -0.026 | [7] 0.043 | [8] -0.055 | IRAK-1-4 Inhibitor I -0.069

OSBP (UniProt P22059)
inactive: erlotinib -0.023 | [1] -0.056 | [2] 0.037 | [3] -0.006 | [4] 0.017 | [5] -0.031 | [6] -0.031 | [7] -0.016 | [8] 0.016 | IRAK-1-4 Inhibitor I -0.112

Further records

P4HA2 (UniProt O15460)
inactive: erlotinib 0.017 | [1] -0.126 | [2] -0.038 | [3] 0.027 | [4] -0.053 | [5] 0 | [6] -0.027 | [7] -0.028 | [8] 0.045 | IRAK-1-4 Inhibitor I 0.078

PANK3 (UniProt Q9H999)
inactive: erlotinib -0.208 | [1] 0.097 | [2] -0.046 | [3] 0.011 | [4] 0.051 | [5] -0.116 | [6] -0.112 | [7] -0.009 | [8] -0.052 | IRAK-1-4 Inhibitor I 0.058

PACSIN3 (UniProt Q9UKS6)
inactive: erlotinib 0.044 | [1] 0.102 | [2] -0.029 | [3] -0.027 | [4] 0.005 | [5] 0.047 | [6] -0.115 | [7] 0.076 | [8] 0.089 | IRAK-1-4 Inhibitor I -0.004

PARL (UniProt Q9H300)
inactive: erlotinib 0.018 | [1] -0.138 | [2] -0.105 | [3] 0.002 | [4] 0.021 | [5] -0.014 | [6] -0.025 | [7] 0.017 | [8] 0.002 | IRAK-1-4 Inhibitor I -0.006

ORC6 (UniProt Q9Y5N6)
inactive: erlotinib -0.033 | [1] 0.097 | [2] 0.015 | [3] 0.096 | [4] -0.018 | [5] 0.061 | [6] 0 | [7] -0.043 | [8] -0.144 | IRAK-1-4 Inhibitor I -0.074

PANK1 (UniProt Q8TE04)
inactive: erlotinib -0.003 | [1] -0.048 | [2] 0.033 | [3] 0.026 | [4] 0.098 | [5] 0.015 | [6] -0.069 | [7] -0.036 | [8] 0.054 | IRAK-1-4 Inhibitor I -0.061
